Data: patent US9533023B2, “EIF4E binding peptides” (Agency for Science, Technology and Research, priority 2010, dated 2017)
At least one peptide structure holds a part that was inferred or is arguable (an end, a ring closure or a residue). Square brackets hold non-standard residues; d marks the D form. Ends that are not written are not given here. Peptide text beside a SMILES is read from it. αMeF = C[C@](N)(Cc1ccccc1)C(=O)O; Ac5c = NC1(C(=O)O)CCCC1

What was measured:
[1] = tested on: endogenous c-myc in MCF-7 cells; assay: Western blot of endogenous c-myc; format: cell-based; settings: 15 μM peptide, 6 hours, vs PBS
Description: MCF-7 cells were cultured in DMEM with 10% FCS. Three hundred fifty thousand MCF-7 cells were then seeded per well in 6-wells plates containing DMEM serum-free media overnight at 37° C. […] A mock PBS treatment was also included. Cells were harvested at 6 hrs and lysed in RIPA buffer. Protein concentration was determined using a Lowry Assay kit (Bio-rad). Samples were loaded at 30 ug and blotted against monoclonal antibody c-myc (Sigma Aldrich #M4439). B-actin was blotted for as a loading control.

[2] = tested on: MCF-7 cells; assay: Annexin staining, flow cytometry; format: cell-based; settings: 30 μM, 48 hours
Description: MCF-7 cells were cultured in DMEM with 10% FCS. Two hundred fifty thousand cells were then seeded per well in 6-wells plates containing DMEM serum-free media overnight at 37° C. […] A mock PBS treatment was also included. Cells were harvested, washed in PBS and spun down at 200 g for 5 mins. Cell pellets were resuspended in Annexin-VFLUOS labeling solution from Roche and incubated for 10-15 min at 15-25° C. Cells were then analyzed using LSR II (BD).

[3] = tested on: MCF-7 5′UTR_MYC_Gaussia reporter cell line; assay: Cap-dependent translation cell-based assay (Gaussia luciferase); settings: TAT peptides, up to 100 μM, 6 hours
[4] = tested on: MCF-7 (5′UTR_MYC_Gaussia) cells; assay: WST-1 assay (cell viability); format: cell-based; settings: 30 μM, 48 hours after treatment
Description: MCF-7 (5′UTR_MYC_Gaussia) cells were cultured in DMEM with 10% FCS. Twenty thousand cells were then seeded per well in 48-wells plates in DMEM serum-free media overnight at 37° C. Before overnight incubation, cells were incubated at room temperature for 30 mins. […] After 48 hrs of treatment, MCF-7 cells were incubated with Cell Proliferation Reagent WST-1(Roche) for 30 mins at 37° C. Absorbances of cell media were then read at 450 nm with SpectraMax M5.

Molecule | endogenous c-myc expression [1] | annexin staining of cells (apoptosis) [2] | inhibition of cap-dependent translation (luciferase output) [3] | WST-1 assay, difference versus control peptide [4]
YGRKKRRQRRRGTKKRYDREFLLGFQF [TAT_eIF4G1] | marked decrease in endogenous c-myc expression | high proportion of the cells to stain with annexin | much stronger inhibition of cap-dependent translation | –
CC(C)C[C@H](NC(=O)[C@H](CC(C)C)NC(=O)[C@](C)(Cc1ccccc1)NC(=O)[C@H](CCC(=O)O)NC(=O)[C@H](CCCNC(=N)N)NC(=O)[C@H](CC(=O)O)NC(=O)[C@H](Cc1ccc(O)cc1)NC(=O)[C@H](CCCNC(=N)N)NC(=O)[C@H](CCCCN)NC(=O)[C@H](CCCCN)NC(=O)[C@@H](NC(=O)CNC(=O)[C@H](CCCNC(=N)N)NC(=O)[C@H](CCCNC(=N)N)NC(=O)[C@H](CCCNC(=N)N)NC(=O)[C@H](CCC(N)=O)NC(=O)[C@H](CCCNC(=N)N)NC(=O)[C@H](CCCNC(=N)N)NC(=O)[C@H](CCCCN)NC(=O)[C@H](CCCCN)NC(=O)[C@H](CCCNC(=N)N)NC(=O)CNC(=O)[C@@H](N)Cc1ccc(O)cc1)[C@@H](C)O)C(=O)NC1(C(=O)N[C@@H](Cc2ccccc2)C(=O)N[C@@H](CCC(N)=O)C(=O)N[C@@H](Cc2ccccc2)C(=O)O)CCCC1 [TAT_eIF4G1_me5] (H-YGRKKRRQRRRGTKKRYDRE[αMeF]LL[Ac5c]FQF-OH) | – | high proportion of the cells to stain with annexin | inhibited cap-dependent translation but with a very similar profile to the TAT_eIF4G1 peptide | clear difference in the amount of inhibition
